From publication PMC7819943, “Rice protein-binding microarrays: a tool to detect cis-acting elements near promoter regions in rice”
The other results are listed elsewhere or left out.

Protein sequences, listed by entry. Tags and fused reporters are not part of them.
UniProt Q0JBA9, entry or part of it: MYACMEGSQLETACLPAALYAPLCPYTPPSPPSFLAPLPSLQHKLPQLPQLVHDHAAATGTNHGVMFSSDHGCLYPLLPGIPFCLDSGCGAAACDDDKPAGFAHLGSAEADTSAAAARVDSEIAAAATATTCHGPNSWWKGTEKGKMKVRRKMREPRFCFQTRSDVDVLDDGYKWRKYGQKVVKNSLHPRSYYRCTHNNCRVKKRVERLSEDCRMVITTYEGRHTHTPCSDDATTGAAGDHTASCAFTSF

target: OsWRKY34 (Oryza sativa, UniProt Q0JBA9 1-250); experiment: protein-binding microarray (RPBM); PBS, 2% BSA, 51.3 ng/ul salmon testes DNA, 50 uM zinc acetate, 200 nM TF, 25 C, 1 h; high values mean tight binding; conditions: protein: recombinant; tags: N-terminal polyhistidine and DsRed monomer fusion (pET32a); label: CyDye5-dUTP incorporated in the synthesized complementary strand; 3' TTTTT single-stranded linker to array surface; dsDNA, one strand shown
How it was run: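 Binding signal is reported as fluorescence intensity per feature (arbitrary units) from an Axon 4000B scanner. Incubation used 200 nM of each Ni–NTA-purified, N-terminally polyhistidine- and DsRed-fused transcription factor from E. coli BL21-CodonPlus on a double-stranded custom Agilent array for 1 h at 25 °C, with 50 µM zinc acetate in the buffer, followed by washing.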

Sequence	binding signal
CATTCTAGTGATTATTGCGACCGTTACTGGCTCTTTCATTCGGAGTCACCTAGTGCAG	8060 fluorescence intensity (a.u.)
ATATGTAGCCCGTAGCTCTTATCTCTCATATTTTATTTTACGGAGTCACCTAGTGCAG	9940 fluorescence intensity (a.u.)
TACCACTCTACTAGACTCCGTTCGCTGACACGCCCCGTCCCGGAGTCACCTAGTGCAG	11100 fluorescence intensity (a.u.)
TCATAGTTGTCCAAAACACGATTTTTCTTCCTACGTACGTCGGAGTCACCTAGTGCAG	8130 fluorescence intensity (a.u.)
ATTACTACTGTAGTACCACTAGTAGTTTTTTATTACTGCTCGGAGTCACCTAGTGCAG	8590 fluorescence intensity (a.u.)
TTGTTTTGCCTTTGCTCCTGTTTTACCAATAGCACACTATCGGAGTCACCTAGTGCAG	11600 fluorescence intensity (a.u.)
GCCGTACGTGTTCCGCCGGCCTCTTCCTTTCCTTGCTTCACGGAGTCACCTAGTGCAG	12400 fluorescence intensity (a.u.)
GGCCCTTATATTTTACTTTGACACCCGCAGACTTGCGAGCCGGAGTCACCTAGTGCAG	8730 fluorescence intensity (a.u.)
TTATTGTTGTGCTTGTATCTGCTACCTATTTTTACATTCACGGAGTCACCTAGTGCAG	9250 fluorescence intensity (a.u.)
CGCCCACCACCATTGTTCTGTTGCTGTTCCGCTGCGCTAGCGGAGTCACCTAGTGCAG	8970 fluorescence intensity (a.u.)
GTGTGTGTAATGTCTATGTTTGTATTATGATTCAAAAAAACGGAGTCACCTAGTGCAG	10600 fluorescence intensity (a.u.)
AATTTAGTCTGTACTGCAGCTTATAAAGCTGTCCCATACTCGGAGTCACCTAGTGCAG	8110 fluorescence intensity (a.u.)
AGGCAAGAGCTAATCTTCGTGTTTCTTATCTTTTCTTATTCGGAGTCACCTAGTGCAG	8040 fluorescence intensity (a.u.)
CATTGCTGCCGTCTTCTACCTTATTACCCAAACTCGTAGACGGAGTCACCTAGTGCAG	8860 fluorescence intensity (a.u.)
CGAAGACAGCATCTCGTTGACCCTTGTCCTTGACACTGTTCGGAGTCACCTAGTGCAG	11700 fluorescence intensity (a.u.)
CATGAAAACAGAGCGTCTTATCTTATCTGCATCCAACTGTCGGAGTCACCTAGTGCAG	9330 fluorescence intensity (a.u.)
CTTTGCACAGAGTTCTTATCTCAGTTTTCCTAACTCACCTCGGAGTCACCTAGTGCAG	11300 fluorescence intensity (a.u.)
GGTACAATCCTCCAATTCCCATTCCCATTCCCATTCCCAACGGAGTCACCTAGTGCAG	8160 fluorescence intensity (a.u.)
AAATCATACTATCCCATGTGTTACTGTACTACTATACGGTCGGAGTCACCTAGTGCAG	8280 fluorescence intensity (a.u.)
TTTCTTGTTGCTGGGTCTGGATTAGGCCTATTACTTCTATCGGAGTCACCTAGTGCAG	8390 fluorescence intensity (a.u.)
GAGTGCATTTCCTGGGTATTATTTTTGTTATCATTTATATCGGAGTCACCTAGTGCAG	9800 fluorescence intensity (a.u.)
CATGATCAAATCTGGCGTACGTTACCGTTTTACTAGATTACGGAGTCACCTAGTGCAG	8870 fluorescence intensity (a.u.)
TCAGGTGATCTTCCATTCTTCCCATCATTATTTCTTTGATCGGAGTCACCTAGTGCAG	12700 fluorescence intensity (a.u.)

Some of the entries so far, as comma-separated lines.
Sequence,binding signal
GGCCCTTATATTTTACTTTGACACCCGCAGACTTGCGAGCCGGAGTCACCTAGTGCAG,8730 fluorescence intensity (a.u.)
TTATTGTTGTGCTTGTATCTGCTACCTATTTTTACATTCACGGAGTCACCTAGTGCAG,9250 fluorescence intensity (a.u.)
